# From the supplement of paper PMC6411743
# The chains behind the UniProt entries cited, without tags or fusion partners. Where a name states a change or a piece, a line headed by the entry shows the natural chain unless it says otherwise.
# UniProt Q9Y2Z4: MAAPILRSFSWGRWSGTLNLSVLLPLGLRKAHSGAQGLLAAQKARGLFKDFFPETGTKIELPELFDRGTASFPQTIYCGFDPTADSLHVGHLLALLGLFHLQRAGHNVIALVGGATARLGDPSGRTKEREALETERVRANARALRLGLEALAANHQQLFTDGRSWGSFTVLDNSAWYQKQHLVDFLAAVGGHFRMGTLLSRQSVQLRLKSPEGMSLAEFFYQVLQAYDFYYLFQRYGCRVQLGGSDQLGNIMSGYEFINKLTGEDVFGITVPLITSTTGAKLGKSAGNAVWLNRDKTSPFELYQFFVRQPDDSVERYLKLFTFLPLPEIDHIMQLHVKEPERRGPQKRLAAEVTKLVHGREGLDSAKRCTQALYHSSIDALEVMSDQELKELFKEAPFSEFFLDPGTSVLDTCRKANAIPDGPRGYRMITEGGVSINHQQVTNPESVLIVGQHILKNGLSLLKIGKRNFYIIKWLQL
# UniProt Q9UMN6, whole entry: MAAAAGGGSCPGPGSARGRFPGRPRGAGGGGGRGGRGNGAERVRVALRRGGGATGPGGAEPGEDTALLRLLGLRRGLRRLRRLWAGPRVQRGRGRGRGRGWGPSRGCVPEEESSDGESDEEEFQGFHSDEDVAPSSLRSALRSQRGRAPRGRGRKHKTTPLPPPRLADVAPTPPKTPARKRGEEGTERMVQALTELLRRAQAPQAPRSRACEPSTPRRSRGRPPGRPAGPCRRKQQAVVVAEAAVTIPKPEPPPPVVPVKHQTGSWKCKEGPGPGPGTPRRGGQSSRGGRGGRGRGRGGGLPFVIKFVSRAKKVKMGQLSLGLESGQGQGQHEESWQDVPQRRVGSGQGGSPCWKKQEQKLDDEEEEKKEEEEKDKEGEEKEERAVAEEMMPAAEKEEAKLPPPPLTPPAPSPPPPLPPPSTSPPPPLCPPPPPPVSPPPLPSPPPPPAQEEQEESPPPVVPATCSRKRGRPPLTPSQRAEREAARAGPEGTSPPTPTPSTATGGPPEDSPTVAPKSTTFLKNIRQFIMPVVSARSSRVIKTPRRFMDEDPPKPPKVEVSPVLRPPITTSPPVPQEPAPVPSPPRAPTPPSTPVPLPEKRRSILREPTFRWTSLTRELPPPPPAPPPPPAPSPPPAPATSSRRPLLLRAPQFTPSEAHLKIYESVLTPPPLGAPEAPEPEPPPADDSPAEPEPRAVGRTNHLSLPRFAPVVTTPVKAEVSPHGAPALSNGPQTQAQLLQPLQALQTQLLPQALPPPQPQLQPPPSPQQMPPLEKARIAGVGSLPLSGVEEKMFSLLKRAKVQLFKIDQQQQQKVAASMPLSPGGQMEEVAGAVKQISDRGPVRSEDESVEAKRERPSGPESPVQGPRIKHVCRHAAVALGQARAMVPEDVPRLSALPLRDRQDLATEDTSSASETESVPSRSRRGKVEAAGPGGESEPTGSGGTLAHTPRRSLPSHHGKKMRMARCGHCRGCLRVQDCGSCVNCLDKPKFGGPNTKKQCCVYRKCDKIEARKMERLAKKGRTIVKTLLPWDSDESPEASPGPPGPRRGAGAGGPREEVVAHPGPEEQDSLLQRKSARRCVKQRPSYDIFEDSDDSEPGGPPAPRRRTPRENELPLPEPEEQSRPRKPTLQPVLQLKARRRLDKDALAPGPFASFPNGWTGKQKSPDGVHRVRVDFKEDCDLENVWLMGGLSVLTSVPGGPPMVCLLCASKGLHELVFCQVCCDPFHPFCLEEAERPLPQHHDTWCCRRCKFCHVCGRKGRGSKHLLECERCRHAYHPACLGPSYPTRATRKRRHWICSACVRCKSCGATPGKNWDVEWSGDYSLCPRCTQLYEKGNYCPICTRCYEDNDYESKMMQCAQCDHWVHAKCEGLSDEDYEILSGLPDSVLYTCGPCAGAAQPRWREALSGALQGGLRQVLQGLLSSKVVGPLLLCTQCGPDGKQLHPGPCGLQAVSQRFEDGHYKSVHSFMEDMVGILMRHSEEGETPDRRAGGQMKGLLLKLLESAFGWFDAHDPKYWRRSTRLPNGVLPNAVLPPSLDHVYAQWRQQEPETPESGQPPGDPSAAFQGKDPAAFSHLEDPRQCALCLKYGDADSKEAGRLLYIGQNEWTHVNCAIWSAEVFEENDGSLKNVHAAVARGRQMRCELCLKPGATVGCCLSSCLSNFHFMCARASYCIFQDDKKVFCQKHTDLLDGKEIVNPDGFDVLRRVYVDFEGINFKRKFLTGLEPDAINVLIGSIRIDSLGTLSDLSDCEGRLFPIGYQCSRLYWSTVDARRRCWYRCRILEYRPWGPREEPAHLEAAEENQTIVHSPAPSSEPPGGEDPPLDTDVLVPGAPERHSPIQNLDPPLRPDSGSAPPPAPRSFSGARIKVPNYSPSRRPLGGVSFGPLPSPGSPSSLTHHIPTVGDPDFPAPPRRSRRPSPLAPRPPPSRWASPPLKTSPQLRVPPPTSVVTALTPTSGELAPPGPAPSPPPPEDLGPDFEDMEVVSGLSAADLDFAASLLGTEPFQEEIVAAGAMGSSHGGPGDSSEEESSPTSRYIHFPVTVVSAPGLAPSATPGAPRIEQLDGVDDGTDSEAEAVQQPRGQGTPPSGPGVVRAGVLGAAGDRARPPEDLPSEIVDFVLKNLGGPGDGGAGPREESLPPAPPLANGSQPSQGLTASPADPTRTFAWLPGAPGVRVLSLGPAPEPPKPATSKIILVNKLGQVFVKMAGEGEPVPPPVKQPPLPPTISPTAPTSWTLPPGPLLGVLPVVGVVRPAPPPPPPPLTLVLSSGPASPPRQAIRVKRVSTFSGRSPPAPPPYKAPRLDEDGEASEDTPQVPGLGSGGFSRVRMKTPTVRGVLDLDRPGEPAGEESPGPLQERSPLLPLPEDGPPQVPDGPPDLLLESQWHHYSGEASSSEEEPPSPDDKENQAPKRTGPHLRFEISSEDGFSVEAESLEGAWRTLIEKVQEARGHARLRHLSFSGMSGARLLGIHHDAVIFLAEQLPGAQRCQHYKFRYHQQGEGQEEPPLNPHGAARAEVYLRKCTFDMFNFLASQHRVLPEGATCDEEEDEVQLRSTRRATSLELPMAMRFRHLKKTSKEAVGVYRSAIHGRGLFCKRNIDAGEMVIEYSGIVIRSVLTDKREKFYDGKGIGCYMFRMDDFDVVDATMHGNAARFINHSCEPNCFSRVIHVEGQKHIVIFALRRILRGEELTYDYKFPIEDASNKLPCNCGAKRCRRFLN
# UniProt Q9UJD0: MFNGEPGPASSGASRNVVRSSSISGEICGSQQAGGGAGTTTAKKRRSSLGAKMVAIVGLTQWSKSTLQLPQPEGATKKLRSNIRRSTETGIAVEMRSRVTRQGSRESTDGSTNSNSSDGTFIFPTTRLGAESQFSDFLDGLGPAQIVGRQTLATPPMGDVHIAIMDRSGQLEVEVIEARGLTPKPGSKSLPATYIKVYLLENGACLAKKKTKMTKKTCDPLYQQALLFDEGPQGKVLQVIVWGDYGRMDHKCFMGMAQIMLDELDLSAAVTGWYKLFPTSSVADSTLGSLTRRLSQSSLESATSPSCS
# UniProt Q9UHB4: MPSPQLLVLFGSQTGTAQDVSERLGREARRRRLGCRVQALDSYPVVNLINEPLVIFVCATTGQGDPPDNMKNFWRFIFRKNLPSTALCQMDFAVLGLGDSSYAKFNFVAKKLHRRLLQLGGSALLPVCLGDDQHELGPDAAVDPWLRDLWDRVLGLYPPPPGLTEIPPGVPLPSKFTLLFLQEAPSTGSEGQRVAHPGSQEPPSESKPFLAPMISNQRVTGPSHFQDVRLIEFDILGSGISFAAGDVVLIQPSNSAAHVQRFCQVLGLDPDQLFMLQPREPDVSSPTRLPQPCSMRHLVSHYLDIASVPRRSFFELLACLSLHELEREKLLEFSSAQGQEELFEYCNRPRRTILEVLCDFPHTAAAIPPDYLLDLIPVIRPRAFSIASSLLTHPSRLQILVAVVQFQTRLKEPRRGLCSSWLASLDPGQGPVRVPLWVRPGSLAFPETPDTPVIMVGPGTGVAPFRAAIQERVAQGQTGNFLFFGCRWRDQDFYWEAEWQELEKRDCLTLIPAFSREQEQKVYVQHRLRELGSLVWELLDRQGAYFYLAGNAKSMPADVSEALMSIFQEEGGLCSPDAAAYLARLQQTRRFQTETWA
# UniProt Q9UN36: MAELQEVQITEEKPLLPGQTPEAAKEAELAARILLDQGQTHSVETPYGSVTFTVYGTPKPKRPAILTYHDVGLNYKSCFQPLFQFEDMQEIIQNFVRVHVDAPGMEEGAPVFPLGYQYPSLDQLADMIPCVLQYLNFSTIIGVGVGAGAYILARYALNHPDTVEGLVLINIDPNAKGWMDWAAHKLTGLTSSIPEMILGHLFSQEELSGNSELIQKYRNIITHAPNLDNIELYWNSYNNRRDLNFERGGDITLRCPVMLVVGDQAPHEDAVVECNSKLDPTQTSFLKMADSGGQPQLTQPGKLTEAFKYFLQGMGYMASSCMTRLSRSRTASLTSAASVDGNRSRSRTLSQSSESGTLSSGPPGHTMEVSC
# UniProt Q9UIB8: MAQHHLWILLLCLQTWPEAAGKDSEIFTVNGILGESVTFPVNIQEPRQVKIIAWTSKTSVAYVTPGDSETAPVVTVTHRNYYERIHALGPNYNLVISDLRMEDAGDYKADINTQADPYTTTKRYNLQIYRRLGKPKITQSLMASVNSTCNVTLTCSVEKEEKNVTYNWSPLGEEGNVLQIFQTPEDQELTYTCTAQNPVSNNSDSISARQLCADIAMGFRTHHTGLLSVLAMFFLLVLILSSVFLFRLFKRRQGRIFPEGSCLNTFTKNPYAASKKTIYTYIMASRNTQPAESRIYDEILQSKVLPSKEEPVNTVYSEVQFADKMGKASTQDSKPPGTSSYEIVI
# UniProt Q9UNW1: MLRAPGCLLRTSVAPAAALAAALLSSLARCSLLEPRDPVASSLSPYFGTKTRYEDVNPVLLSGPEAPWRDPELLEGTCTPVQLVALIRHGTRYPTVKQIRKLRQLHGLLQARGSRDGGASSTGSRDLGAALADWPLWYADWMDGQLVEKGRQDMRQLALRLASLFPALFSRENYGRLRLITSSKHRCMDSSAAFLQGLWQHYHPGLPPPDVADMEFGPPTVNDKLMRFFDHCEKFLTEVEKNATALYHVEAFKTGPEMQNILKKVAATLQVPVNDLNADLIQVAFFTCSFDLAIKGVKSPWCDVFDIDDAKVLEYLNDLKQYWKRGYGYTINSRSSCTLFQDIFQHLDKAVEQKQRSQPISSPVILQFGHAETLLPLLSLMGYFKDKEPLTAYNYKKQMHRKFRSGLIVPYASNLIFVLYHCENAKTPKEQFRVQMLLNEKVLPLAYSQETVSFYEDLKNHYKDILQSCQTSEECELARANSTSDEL
# UniProt Q9UK41: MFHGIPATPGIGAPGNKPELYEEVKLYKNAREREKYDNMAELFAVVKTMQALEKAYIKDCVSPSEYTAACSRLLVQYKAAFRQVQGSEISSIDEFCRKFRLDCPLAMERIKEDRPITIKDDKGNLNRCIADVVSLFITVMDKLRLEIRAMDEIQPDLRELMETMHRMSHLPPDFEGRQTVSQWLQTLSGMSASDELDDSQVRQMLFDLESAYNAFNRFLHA
# UniProt Q9UDT6: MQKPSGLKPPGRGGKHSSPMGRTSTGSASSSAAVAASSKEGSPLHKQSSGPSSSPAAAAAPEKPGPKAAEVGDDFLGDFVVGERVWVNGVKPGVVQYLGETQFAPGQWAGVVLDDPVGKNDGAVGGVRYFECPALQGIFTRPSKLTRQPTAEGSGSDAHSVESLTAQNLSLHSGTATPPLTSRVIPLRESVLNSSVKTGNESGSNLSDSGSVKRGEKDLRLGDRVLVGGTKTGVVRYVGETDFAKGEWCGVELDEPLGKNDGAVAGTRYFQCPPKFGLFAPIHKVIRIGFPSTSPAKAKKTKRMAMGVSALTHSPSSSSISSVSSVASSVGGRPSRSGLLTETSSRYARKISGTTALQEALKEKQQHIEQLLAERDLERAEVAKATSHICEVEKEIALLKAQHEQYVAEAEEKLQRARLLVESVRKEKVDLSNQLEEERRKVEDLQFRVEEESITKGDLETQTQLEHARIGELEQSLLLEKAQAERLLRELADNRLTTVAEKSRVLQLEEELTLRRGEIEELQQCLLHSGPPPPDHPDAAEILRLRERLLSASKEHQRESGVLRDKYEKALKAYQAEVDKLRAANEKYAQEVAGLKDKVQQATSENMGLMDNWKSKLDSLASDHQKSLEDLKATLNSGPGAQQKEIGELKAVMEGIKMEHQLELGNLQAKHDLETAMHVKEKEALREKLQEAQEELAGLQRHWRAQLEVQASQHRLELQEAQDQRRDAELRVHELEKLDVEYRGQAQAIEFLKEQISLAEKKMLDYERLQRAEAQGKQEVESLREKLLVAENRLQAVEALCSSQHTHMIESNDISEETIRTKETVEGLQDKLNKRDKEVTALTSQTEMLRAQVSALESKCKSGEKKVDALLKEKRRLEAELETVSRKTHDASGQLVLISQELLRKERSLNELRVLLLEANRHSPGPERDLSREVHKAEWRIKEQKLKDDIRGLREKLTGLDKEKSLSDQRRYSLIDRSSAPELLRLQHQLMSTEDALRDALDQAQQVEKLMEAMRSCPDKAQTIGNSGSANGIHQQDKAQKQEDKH
# ± gives the standard deviation of the averaged measurements. This is a selection; strong and weak results do not stand in their true shares.
# Compound: Nc1ncnc2c1ncn2[C@@H]1O[C@H](COP(=O)(O)OP(=O)(O)NP(=O)(O)O)[C@@H](O)[C@H]1O [adenylyl imidodiphosphate]
# Assay: NP40-soluble protein abundance relative to vehicle (solubility fold change) (ratio); higher = more soluble protein in presence of AMP-PNP
# How it was run: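 In three independent experiments, Jurkat crude lysate made by Dounce homogenisation was treated for 10 min at room temperature and then 3 min at 37 °C with eight concentrations ranging from 0.1 to 10 mM. It was then solubilised with 0.8% NP40 plus benzonase for 60 min at 4 °C and ultracentrifuged. The supernatant was TMT-labelled for LC-MS/MS, and each value is the fold change against the detergent-processed vehicle for the same replicate, using vsn-normalised intensities.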
Target,NP40-soluble protein abundance (concentration: 1mM),NP40-soluble protein abundance (concentration: 2mM),NP40-soluble protein abundance (concentration: 4mM),NP40-soluble protein abundance (concentration: 6mM),NP40-soluble protein abundance (concentration: 8mM),NP40-soluble protein abundance (concentration: 10mM)
MRTO4 (UniProt Q9UKD2),1.05 ± 0.07,1.09 ± 0.09,1.1 ± 0.047,1.16 ± 0.11,1.17 ± 0.12,1.23 ± 0.14
UniProt Q9UG22,1.05 ± 0.069,0.995 ± 0.077,0.973 ± 0.029,1 ± 0.035,0.985 ± 0.077,0.988 ± 0.099
UniProt Q9Y2S0 and related entries,1.03 ± 0.024,1.06 ± 0.053,1.08 ± 0.062,1.02 ± 0.018,1.03 ± 0.041,1.07 ± 0.036
UniProt Q9Y333,1.07 ± 0.068,1.31 ± 0.34,1.09 ± 0.067,1.18 ± 0.067,1.14 ± 0.028,1.26 ± 0.14
UniProt Q9UNA1 and related entries,0.985 ± 0.031,0.983 ± 0.021,1.01 ± 0.045,1.01 ± 0.015,0.992 ± 0.02,1 ± 0.03
FAM8A1 (UniProt Q9UBU6),0.975 ± 0.021,0.9965 ± 0.0065,0.987 ± 0.036,0.957 ± 0.03,0.968 ± 0.023,0.97 ± 0.015
UniProt Q9Y2I8 and related entries,1.01 ± 0.017,0.981 ± 0.02,1.017 ± 0.0087,0.996 ± 0.036,1.01 ± 0.015,0.99 ± 0.021
UniProt Q9ULK4 and related entries,0.978 ± 0.028,0.92 ± 0.072,0.954 ± 0.026,0.965 ± 0.028,0.99 ± 0.025,0.955 ± 0.053
YARS2 (UniProt Q9Y2Z4),0.972 ± 0.031,0.935 ± 0.037,0.968 ± 0.022,0.936 ± 0.036,0.965 ± 0.014,0.935 ± 0.016
ANAPC7 (UniProt Q9UJX3),1.04 ± 0.021,1.036 ± 0.0033,1.05 ± 0.022,1.04 ± 0.049,1.02 ± 0.044,1.05 ± 0.036
UniProt Q9UL15 and related entries,1.03 ± 0.035,1.03 ± 0.039,1.03 ± 0.013,1.02 ± 0.048,1.02 ± 0.03,1 ± 0.053
UniProt Q9ULP9 and related entries,0.992 ± 0.033,0.9667 ± 0.0064,0.983 ± 0.028,0.999 ± 0.032,0.962 ± 0.047,0.957 ± 0.063
KMT2B (UniProt Q9UMN6),1 ± 0.032,1.03 ± 0.066,1.02 ± 0.019,1.01 ± 0.036,0.995 ± 0.044,1.03 ± 0.043
VPS51 (UniProt Q9UID3),1.017 ± 0.0044,1.01 ± 0.037,1.01 ± 0.037,0.999 ± 0.029,0.975 ± 0.049,1.01 ± 0.024
PEF1 (UniProt Q9UBV8),0.951 ± 0.015,0.97 ± 0.028,0.982 ± 0.011,1.01 ± 0.015,0.991 ± 0.011,0.997 ± 0.037
UniProt Q9UN86-2,1.09 ± 0.036,1.18 ± 0.072,1.19 ± 0.052,1.25 ± 0.082,1.23 ± 0.062,1.26 ± 0.073
UniProt Q9UJD0,1 ± 0.015,1.01 ± 0.027,0.994 ± 0.035,1 ± 0.011,1.01 ± 0.023,1.01 ± 0.045
UniProt Q9UHB4 and related entries,1 ± 0.043,0.967 ± 0.025,0.964 ± 0.025,0.989 ± 0.027,1 ± 0.03,0.97 ± 0.023
MTMR6 (UniProt Q9Y217),1 ± 0.013,0.985 ± 0.033,0.999 ± 0.048,0.964 ± 0.042,0.934 ± 0.03,0.942 ± 0.021
GIT1 (UniProt Q9Y2X7),1.02 ± 0.045,1.029 ± 0.0055,1.03 ± 0.011,1.02 ± 0.033,0.9989 ± 0.0093,1.01 ± 0.043

Target,NP40-soluble protein abundance (concentration: 1mM),NP40-soluble protein abundance (concentration: 2mM),NP40-soluble protein abundance (concentration: 4mM),NP40-soluble protein abundance (concentration: 6mM),NP40-soluble protein abundance (concentration: 8mM),NP40-soluble protein abundance (concentration: 10mM)
AP4E1 (UniProt Q9UPM8),1.03 ± 0.051,1.012 ± 0.0085,1.04 ± 0.027,1.02 ± 0.034,1.01 ± 0.024,1.06 ± 0.034
UniProt Q9UGR2 and related entries,1.02 ± 0.02,1.03 ± 0.033,1.06 ± 0.043,1.02 ± 0.011,1.07 ± 0.065,1.06 ± 0.051
UniProt Q9Y2D5 and related entries,1.14 ± 0.073,1.23 ± 0.14,1.22 ± 0.086,1.21 ± 0.13,1.25 ± 0.11,1.27 ± 0.12
UniProt Q9UKZ1,0.958 ± 0.0096,0.9834 ± 0.0049,0.995 ± 0.058,1.02 ± 0.038,1.01 ± 0.065,1.04 ± 0.053
NIPSNAP3A (UniProt Q9UFN0),0.942 ± 0.058,0.879 ± 0.079,0.965 ± 0.098,0.961 ± 0.031,0.991 ± 0.05,0.948 ± 0.096
UniProt Q9UMZ2 and related entries,1.02 ± 0.035,1.05 ± 0.064,1.03 ± 0.031,0.978 ± 0.035,0.955 ± 0.021,0.981 ± 0.037
ACAD8 (UniProt Q9UKU7),0.984 ± 0.019,0.949 ± 0.089,1.004 ± 0.0096,1.03 ± 0.033,1.03 ± 0.041,1.04 ± 0.043
ZNF148 (UniProt Q9UQR1),1.02 ± 0.037,1.01 ± 0.034,1.01 ± 0.077,0.962 ± 0.033,0.985 ± 0.086,0.993 ± 0.092
POLK (UniProt Q9UBT6),1.02 ± 0.042,1.04 ± 0.042,1.01 ± 0.02,1.01 ± 0.013,0.9996 ± 0.0059,0.995 ± 0.015
UniProt Q9Y250 and related entries,1.02 ± 0.019,1.03 ± 0.031,1.02 ± 0.041,0.954 ± 0.011,0.942 ± 0.032,0.991 ± 0.047
CPSF3 (UniProt Q9UKF6),0.974 ± 0.04,0.943 ± 0.063,0.999 ± 0.063,1.03 ± 0.036,1.05 ± 0.021,1.05 ± 0.096
UniProt Q9UIC8 and related entries,0.972 ± 0.024,0.928 ± 0.063,0.962 ± 0.037,0.91 ± 0.033,0.94 ± 0.012,0.89 ± 0.026
UniProt Q9UPP1 and related entries,1.04 ± 0.04,1.07 ± 0.093,1.04 ± 0.086,1.09 ± 0.077,1.09 ± 0.11,1.09 ± 0.13
MSRB2 (UniProt Q9Y3D2),1 ± 0.051,1.01 ± 0.039,1 ± 0.041,0.976 ± 0.016,0.973 ± 0.03,0.974 ± 0.053
UniProt Q9UN36 and related entries,1.02 ± 0.015,1.04 ± 0.032,1.01 ± 0.06,0.986 ± 0.025,0.973 ± 0.069,0.979 ± 0.024
UniProt Q9UKX3,0.9785 ± 0.0069,0.965 ± 0.017,0.979 ± 0.035,0.968 ± 0.1,0.946 ± 0.068,0.9784 ± 0.0034
PA2G4 (UniProt Q9UQ80),0.994 ± 0.021,0.9819 ± 0.0068,0.9512 ± 0.0056,0.966 ± 0.016,0.935 ± 0.03,0.947 ± 0.038
PLAA (UniProt Q9Y263),0.967 ± 0.021,0.949 ± 0.045,0.97 ± 0.017,0.964 ± 0.019,0.9613 ± 0.0081,0.942 ± 0.017
UniProt Q9UIB8 and related entries,0.9756 ± 0.0055,0.982 ± 0.028,0.97 ± 0.024,0.9737 ± 0.0071,0.9696 ± 0.0036,0.978 ± 0.023
RAB22A (UniProt Q9UL26),0.983 ± 0.042,0.962 ± 0.046,1 ± 0.037,0.989 ± 0.041,1.005 ± 0.0017,0.992 ± 0.026

Target,NP40-soluble protein abundance (concentration: 1mM),NP40-soluble protein abundance (concentration: 2mM),NP40-soluble protein abundance (concentration: 4mM),NP40-soluble protein abundance (concentration: 6mM),NP40-soluble protein abundance (concentration: 8mM),NP40-soluble protein abundance (concentration: 10mM)
USP24 (UniProt Q9UPU5),0.979 ± 0.014,0.941 ± 0.025,0.978 ± 0.019,0.948 ± 0.018,0.968 ± 0.024,0.929 ± 0.034
UniProt Q9Y2V7 and related entries,0.959 ± 0.01,0.941 ± 0.02,0.948 ± 0.052,0.953 ± 0.033,0.934 ± 0.05,0.933 ± 0.047
AP3M1 (UniProt Q9Y2T2),0.953 ± 0.041,0.942 ± 0.062,0.993 ± 0.039,1.02 ± 0.044,1.05 ± 0.012,1 ± 0.041
UniProt Q9Y2I1 and related entries,0.984 ± 0.021,0.99 ± 0.014,0.973 ± 0.026,0.951 ± 0.012,0.921 ± 0.01,0.948 ± 0.029
DICER1 (UniProt Q9UPY3),1 ± 0.03,0.966 ± 0.073,1 ± 0.039,0.963 ± 0.041,0.957 ± 0.03,0.955 ± 0.033
UniProt Q9UH99 and related entries,1.02 ± 0.024,1.015 ± 0.006,1.013 ± 0.0092,1 ± 0.022,1.03 ± 0.013,1.003 ± 0.0041
SCML2 (UniProt Q9UQR0),1.08 ± 0.049,1.09 ± 0.058,1.17 ± 0.075,1.18 ± 0.069,1.19 ± 0.087,1.27 ± 0.11
MINPP1 (UniProt Q9UNW1),1.02 ± 0.015,1.01 ± 0.032,1.012 ± 0.0089,1.05 ± 0.053,1.03 ± 0.019,1.06 ± 0.039
RAB21 (UniProt Q9UL25),0.996 ± 0.032,0.985 ± 0.028,1.01 ± 0.025,1.08 ± 0.11,1.08 ± 0.073,1.11 ± 0.075
INPP5F (UniProt Q9Y2H2),0.998 ± 0.03,1.03 ± 0.034,0.986 ± 0.022,0.992 ± 0.018,0.975 ± 0.043,0.994 ± 0.037
AMDHD2 (UniProt Q9Y303),0.968 ± 0.016,0.923 ± 0.048,0.949 ± 0.024,0.954 ± 0.024,0.948 ± 0.02,0.922 ± 0.033
VPS28 (UniProt Q9UK41),0.992 ± 0.064,1.02 ± 0.046,0.973 ± 0.032,0.928 ± 0.014,0.926 ± 0.017,0.853 ± 0.093
UniProt Q9ULL5-3,1.07 ± 0.052,1.02 ± 0.0094,1.018 ± 0.0083,1.011 ± 0.0056,1.03 ± 0.017,1.02 ± 0.018
UniProt Q9UDT6 and related entries,1.04 ± 0.041,1.06 ± 0.011,1.08 ± 0.047,1.1 ± 0.097,1.1 ± 0.15,1.1 ± 0.12
DBR1 (UniProt Q9UK59),0.985 ± 0.04,0.939 ± 0.083,0.974 ± 0.051,0.9598 ± 0.0087,0.992 ± 0.029,0.957 ± 0.022
UniProt Q9Y2A7 and related entries,0.972 ± 0.026,0.974 ± 0.034,0.9706 ± 0.0091,1 ± 0.019,0.976 ± 0.02,0.985 ± 0.026
PRPF19 (UniProt Q9UMS4),1.01 ± 0.03,0.966 ± 0.045,1.03 ± 0.049,1.15 ± 0.023,1.167 ± 0.0091,1.15 ± 0.084
PLXNA1 (UniProt Q9UIW2),1.01 ± 0.022,1.03 ± 0.036,1.03 ± 0.026,1.01 ± 0.026,1 ± 0.025,1.03 ± 0.018
UniProt Q9Y2Q0 and related entries,0.994 ± 0.049,0.985 ± 0.026,0.9739 ± 0.0091,0.981 ± 0.014,0.963 ± 0.047,0.987 ± 0.041
ZC3H4 (UniProt Q9UPT8),1.04 ± 0.015,1.1 ± 0.096,1.01 ± 0.032,0.997 ± 0.035,0.971 ± 0.02,0.982 ± 0.016

# 5 entries drawn at random from those above:
Target,NP40-soluble protein abundance (concentration: 1mM),NP40-soluble protein abundance (concentration: 2mM),NP40-soluble protein abundance (concentration: 4mM),NP40-soluble protein abundance (concentration: 6mM),NP40-soluble protein abundance (concentration: 8mM),NP40-soluble protein abundance (concentration: 10mM)
FAM8A1 (UniProt Q9UBU6),0.975 ± 0.021,0.9965 ± 0.0065,0.987 ± 0.036,0.957 ± 0.03,0.968 ± 0.023,0.97 ± 0.015
ACAD8 (UniProt Q9UKU7),0.984 ± 0.019,0.949 ± 0.089,1.004 ± 0.0096,1.03 ± 0.033,1.03 ± 0.041,1.04 ± 0.043
UniProt Q9UKX3,0.9785 ± 0.0069,0.965 ± 0.017,0.979 ± 0.035,0.968 ± 0.1,0.946 ± 0.068,0.9784 ± 0.0034
MRTO4 (UniProt Q9UKD2),1.05 ± 0.07,1.09 ± 0.09,1.1 ± 0.047,1.16 ± 0.11,1.17 ± 0.12,1.23 ± 0.14
MSRB2 (UniProt Q9Y3D2),1 ± 0.051,1.01 ± 0.039,1 ± 0.041,0.976 ± 0.016,0.973 ± 0.03,0.974 ± 0.053
